Source: PMC10403950
Results are given in words; binding and its absence hold for the method and conditions named. Binding calls can cover weak binding; strength is not graded here. Tags and fused reporters may be left off the sequences shown.

Chains of the proteins cited; added tags and fusions are not shown. Lines headed by an entry give the natural chain unless they say otherwise; changes in a name come on top.
UniProt Q6UXZ0: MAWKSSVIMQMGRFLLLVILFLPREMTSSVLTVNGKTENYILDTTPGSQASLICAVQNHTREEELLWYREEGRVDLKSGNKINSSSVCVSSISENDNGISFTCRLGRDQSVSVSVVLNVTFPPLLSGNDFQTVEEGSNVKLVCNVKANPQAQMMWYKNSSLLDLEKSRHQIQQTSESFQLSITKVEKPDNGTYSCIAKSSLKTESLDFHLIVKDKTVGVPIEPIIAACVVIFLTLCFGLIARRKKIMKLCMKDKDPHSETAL

Molecular target: Purified recombinant GST-tagged TMIGD1 protein (TMIGD1-GST) (UniProt Q6UXZ0)
Experiment: pull-down; TMIGD1-GST on Glutathione Agarose (4°C, 2 h), then incubated with BANF1-Flag at 4°C for 2 h; washed five times; eluate analysed by western blot; both purified

binding: binds
B1: FLAG-tagged BANF1 protein (BANF1-Flag) (protein, UniProt O75531 1-89)
chain: MTTSQKHRDFVAEPMGEKPVGSLAGIGEVLGKKLEERGFDKAYVVLGQFLVLKKDEDLFREWLKDTCGANAKQSRDCFGCLREWCDAFL
